# Source: article PMC10435766
# Protein sequences, listed by entry. Tags and fused reporters are not part of them. Residues count along the entry.
# UniProt P01042, residues 19-644: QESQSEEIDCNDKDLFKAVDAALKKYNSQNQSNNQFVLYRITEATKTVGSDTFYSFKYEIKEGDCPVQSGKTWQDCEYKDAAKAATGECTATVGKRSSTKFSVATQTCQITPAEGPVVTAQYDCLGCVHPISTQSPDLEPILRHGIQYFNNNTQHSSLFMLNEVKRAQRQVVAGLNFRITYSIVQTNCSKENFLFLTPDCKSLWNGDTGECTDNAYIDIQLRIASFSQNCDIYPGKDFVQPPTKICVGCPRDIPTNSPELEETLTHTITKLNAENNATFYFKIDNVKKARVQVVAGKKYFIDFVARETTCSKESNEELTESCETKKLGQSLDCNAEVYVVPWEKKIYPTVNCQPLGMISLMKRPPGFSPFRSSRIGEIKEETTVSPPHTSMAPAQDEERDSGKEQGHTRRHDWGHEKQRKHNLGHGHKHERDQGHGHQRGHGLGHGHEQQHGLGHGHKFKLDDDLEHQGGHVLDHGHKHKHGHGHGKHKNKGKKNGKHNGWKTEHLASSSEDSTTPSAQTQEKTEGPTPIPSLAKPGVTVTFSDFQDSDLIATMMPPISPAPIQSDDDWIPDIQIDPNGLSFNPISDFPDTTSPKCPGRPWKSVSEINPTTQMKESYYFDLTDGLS
# UniProt Q7Z434: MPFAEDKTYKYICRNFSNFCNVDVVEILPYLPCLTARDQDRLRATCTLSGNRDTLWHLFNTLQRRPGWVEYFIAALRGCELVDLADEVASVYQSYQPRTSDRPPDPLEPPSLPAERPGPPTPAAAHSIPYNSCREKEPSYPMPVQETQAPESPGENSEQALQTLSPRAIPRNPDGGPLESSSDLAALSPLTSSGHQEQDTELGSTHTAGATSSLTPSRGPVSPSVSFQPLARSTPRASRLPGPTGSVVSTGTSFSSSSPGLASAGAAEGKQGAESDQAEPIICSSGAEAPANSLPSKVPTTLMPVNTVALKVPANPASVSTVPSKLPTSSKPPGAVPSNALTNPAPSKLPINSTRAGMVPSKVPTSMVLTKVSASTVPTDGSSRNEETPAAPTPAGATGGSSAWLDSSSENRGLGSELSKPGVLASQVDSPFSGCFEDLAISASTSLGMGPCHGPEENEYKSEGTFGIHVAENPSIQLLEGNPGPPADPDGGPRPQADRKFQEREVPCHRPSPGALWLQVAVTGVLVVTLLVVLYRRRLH
# UniProt Q07065: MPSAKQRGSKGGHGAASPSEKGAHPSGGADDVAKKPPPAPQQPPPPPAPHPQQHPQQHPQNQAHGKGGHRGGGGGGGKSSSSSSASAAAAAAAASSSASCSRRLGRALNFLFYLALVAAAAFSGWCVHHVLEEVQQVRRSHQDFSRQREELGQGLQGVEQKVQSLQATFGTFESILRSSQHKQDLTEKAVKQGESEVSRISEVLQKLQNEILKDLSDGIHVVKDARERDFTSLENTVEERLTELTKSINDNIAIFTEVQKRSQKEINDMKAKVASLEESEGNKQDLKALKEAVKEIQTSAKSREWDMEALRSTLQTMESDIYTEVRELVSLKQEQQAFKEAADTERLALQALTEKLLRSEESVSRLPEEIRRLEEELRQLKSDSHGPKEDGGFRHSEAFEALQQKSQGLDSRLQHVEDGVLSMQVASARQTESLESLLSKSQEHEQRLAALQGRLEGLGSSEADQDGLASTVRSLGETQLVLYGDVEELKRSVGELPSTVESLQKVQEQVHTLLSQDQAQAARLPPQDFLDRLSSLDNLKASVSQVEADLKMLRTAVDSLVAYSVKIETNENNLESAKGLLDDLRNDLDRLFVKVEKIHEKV
# UniProt P11021, residues 19-654: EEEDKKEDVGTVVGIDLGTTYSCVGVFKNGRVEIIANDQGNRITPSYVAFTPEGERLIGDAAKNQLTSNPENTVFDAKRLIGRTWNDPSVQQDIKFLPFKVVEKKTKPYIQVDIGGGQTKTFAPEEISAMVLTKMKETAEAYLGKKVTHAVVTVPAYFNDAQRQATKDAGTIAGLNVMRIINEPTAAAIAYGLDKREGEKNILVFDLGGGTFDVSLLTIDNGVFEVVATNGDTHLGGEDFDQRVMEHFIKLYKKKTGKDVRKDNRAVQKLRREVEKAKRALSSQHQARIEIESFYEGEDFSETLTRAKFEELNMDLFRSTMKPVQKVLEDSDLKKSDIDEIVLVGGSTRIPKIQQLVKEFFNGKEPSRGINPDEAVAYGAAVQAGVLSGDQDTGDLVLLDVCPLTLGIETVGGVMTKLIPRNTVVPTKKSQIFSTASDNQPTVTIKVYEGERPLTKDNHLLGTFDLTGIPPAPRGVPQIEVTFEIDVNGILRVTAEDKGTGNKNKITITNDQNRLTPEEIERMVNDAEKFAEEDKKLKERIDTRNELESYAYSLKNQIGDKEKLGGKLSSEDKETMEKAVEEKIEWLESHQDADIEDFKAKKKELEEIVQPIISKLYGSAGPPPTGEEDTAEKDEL
# UniProt P26641: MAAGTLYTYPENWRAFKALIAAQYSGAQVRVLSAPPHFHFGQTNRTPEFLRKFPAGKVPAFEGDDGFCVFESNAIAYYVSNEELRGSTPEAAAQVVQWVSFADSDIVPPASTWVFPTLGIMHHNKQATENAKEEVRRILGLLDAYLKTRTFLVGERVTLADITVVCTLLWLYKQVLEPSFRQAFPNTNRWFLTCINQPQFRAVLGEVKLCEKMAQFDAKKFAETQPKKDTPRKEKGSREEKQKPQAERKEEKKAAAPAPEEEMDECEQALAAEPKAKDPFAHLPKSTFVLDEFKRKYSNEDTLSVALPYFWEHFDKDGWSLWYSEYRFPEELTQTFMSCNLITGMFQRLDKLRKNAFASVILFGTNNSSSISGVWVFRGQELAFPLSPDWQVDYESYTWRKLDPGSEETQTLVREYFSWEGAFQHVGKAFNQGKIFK
# Columns and labels:
# [1] = target: KNG1-Flag (pcDNA3.1-KNG1-3 × Flag) (human) (UniProt P01042); experiment: affinity purification with mass spectrometry; protein mixtures containing KNG1 and MAVS identified by LC/MS; proteins enriched by both MAVS and KNG1
# [2] = target: MAVS (endogenous) (human (endogenous in HepG2, HepG2.2.15, Huh7)) (UniProt Q7Z434); experiment: as above
binding [1],binding [2],Substance
binds,binds,CKAP4 (from UniProt Q07065 1-602)
binds,binds,HSP90A (endogenous) (from UniProt P07900 1-732)
binds,binds,HSPA5 (from UniProt P11021 19-654)
binds,binds,EEF1G (from UniProt P26641 1-437)

# These are yes or no findings as the source states them, for the method shown. In cells and extracts the contact can be indirect. A yes stands for co-enrichment or nearness to the bait. Other partners may have been found.
